Out of some 390,000 compounds screened, about 760 (0.19%) were called active. The shares of active, inactive and inconclusive entries below differ from those in the screen. Calls come from the whole dose curve; as a rule, active = well fitted inhibition curve with a large enough effect; inconclusive = small, poorly fitted or top-dose-only effect; inactive = flat fitted curve, though single readings scatter. Potencies of inconclusive entries are doubtful fits and often do not repeat.
Assay: qHTS for Inhibitors of Vif-A3F Interactions: qHTS; note: nearly all actives have a fitted effect of over 65% in size
Settings: HeLa A3F-eYFP + Vif (tagged APOBEC3F with the HIV-1 protein that degrades it), YFP fluorescence increase; series mostly up to 46.1 µM
Outline: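 Fluorescence increase (Ex 488/Em 500-530) after overnight compound treatment at 37 deg C flags inhibition of Vif-driven A3F-eYFP loss in stable HeLa A3F-eYFP/Vif cells seeded overnight beforehand.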
Potency is the fitted concentration of half-maximal effect.

SMILES	Potency
OC(c1ccc(Cl)cc1)C(CN1CCOCC1)c1ccccc1 (centres undefined)	inconclusive: 5.62 µM [inhibitor, single point]
O=C(CCC1N=C2c3ccccc3N=C(SCc3ccc(F)cc3)N2C1=O)NC1CCCCC1 (centres undefined)	inconclusive: 11.2 µM [inhibitor, partial curve, poor fit]
CCN1/C(=C/c2ccc3cc(C)ccc3[n+]2CC)Sc2cc(C)ccc21	inconclusive: 0.562 µM [inhibitor, partial curve, poor fit]
COC(=O)Cc1c(C)c2cc3c(c(C)c2oc1=O)OCN(CCc1ccc(OC)cc1)C3	inactive
Cc1cc(C)c2c(n1)SCCN2C(=O)Nc1ccc(C(=O)Nc2ccc(C(C)C)cc2)cc1	inactive
CCN(CC)c1ccc2cc(-c3nc(-c4cc(OC)c(OC)c(OC)c4)no3)c(=O)oc2c1	inconclusive: 0.562 µM [inhibitor, full curve, poor fit]
Cc1ccc(Nc2c(-c3ccccn3)nc3ccc(C)cn23)cc1	inconclusive: 25.1 µM [inhibitor, single point]
CCOC(=O)c1c(/N=C/N(C)C)sc(C)c1C	inactive
CCOC(=O)c1ccc(NC(=O)CSc2nc3c([nH]c4ccccc43)c(=O)n2C)cc1	inconclusive: 20 µM [inhibitor, single point]
O=C1c2ccccc2C(=O)c2c(Nc3ccc(CCO)cc3)ccc(O)c21	inactive
CC1=Nc2ccc(C)cc2/C1=C/c1c(N)n2oc(C)cc2nc1=O	active: 11.2 µM
O=C(CCn1c2c(c3ccccc31)CCCC2)NNC(=O)c1ccccc1C(=O)O	inconclusive: 35.5 µM [inhibitor, single point]
Cc1ccc(OC/C(=N\O)C(C)(C)C)c([N+](=O)[O-])c1	inconclusive: 6.31 µM [inhibitor, single point]
CCNc1sc(C(=O)c2cccs2)c(N)c1-c1nc2ccccc2s1	inconclusive: 35.5 µM [inhibitor, single point]
CC(C)Oc1ccc(Br)cc1/C=N\NC(N)=S	inconclusive: 5.01 µM [inhibitor, single point]
CCc1nnc(NC(=S)Nc2ccccc2)s1	inconclusive: 3.55 µM [inhibitor, single point]
CCOCCc1nnc(NC(=O)C2CCN(C(=O)c3ccco3)CC2)s1	inconclusive: 35.5 µM [inhibitor, single point]
CCn1nc(C(=O)Nc2ccccc2N2CCCC2)c2ccccc2c1=O	inconclusive: 35.5 µM [inhibitor, single point]
O=C(Cn1c(=O)n(-c2ccccc2)c(=O)c2c3c(sc21)CCCC3)Nc1ccccc1	inconclusive: 35.5 µM [inhibitor, single point]
COc1ccc(NC(=O)CN(C)C(=O)C23CC4CC(CC(C4)C2)C3)cc1	inconclusive: 3.55 µM [inhibitor, single point]
Oc1ccccc1C1NN=C(c2ccccc2)S1 (centres undefined)	inconclusive: 35.5 µM [inhibitor, single point]
Cc1cccc2cc(C#N)c(NCCCNS(=O)(=O)c3ccc(Cl)cc3)nc12	inconclusive: 35.5 µM [inhibitor, single point]

Reprinted from above (2 entries):
SMILES	Potency
Oc1ccccc1C1NN=C(c2ccccc2)S1 (centres undefined)	inconclusive: 35.5 µM [inhibitor, single point]
Cc1cccc2cc(C#N)c(NCCCNS(=O)(=O)c3ccc(Cl)cc3)nc12	inconclusive: 35.5 µM [inhibitor, single point]

Next structures follow:

SMILES	Potency
CCCCN(CC)CCNC(=O)C1CCN(c2nnc(C)c3c(C)n(-c4ccc(C)cc4)nc23)CC1	inconclusive: 35.5 µM [inhibitor, single point]
CCOC(=O)/C(=C/C1=CC(=C/N(C)C)/C(=O)O1)C(C)=O	inconclusive: 11.2 µM [inhibitor, partial curve]
COc1ccccc1C1CC(c2ccco2)=NN1S(C)(=O)=O (centres undefined)	inconclusive: 20 µM [inhibitor, single point]
Cc1ccc(Nc2nc(-c3ccccc3)c(CC(=O)O)s2)cc1	inconclusive: 25.1 µM [inhibitor, single point]
COc1ccc(C(=O)NCC(=O)OCC(=O)NC(=O)NC2CCCCC2)cc1OC	inconclusive: 6.31 µM [inhibitor, single point]
CCCCNC(=O)CNC(=S)N(Cc1ccccc1F)C1CCCCC1	inconclusive: 0.562 µM [inhibitor, full curve, poor fit]
COc1ccc(/C=C/C(=O)c2ccc([N+](=O)[O-])o2)cc1OC	inconclusive: 35.5 µM [inhibitor, single point]
N#CC1=C(N)Oc2ccc3ccc(O)cc3c2C1c1ccsc1 (centres undefined)	inconclusive: 3.16 µM [inhibitor, single point]
C[C@H](CO)N1C[C@H](C)[C@@H](CN(C)Cc2ccc(Oc3ccccc3)cc2)Oc2cc(Br)ccc2S1(=O)=O	inconclusive: 22.4 µM [inhibitor, single point]
CCOC(=O)N1CCN(CC(=O)N2CCC(C(N)=O)CC2)CC1	inconclusive: 22.4 µM [inhibitor, single point]
N#CC1(NC(=O)Cn2ncc(Cl)c(Cl)c2=O)CCCCC1	inconclusive: 3.98 µM [inhibitor, single point]
Cc1csc(=Nc2cccnc2)n1Cc1ccco1	inconclusive: 35.5 µM [inhibitor, single point]
N#Cc1ccc(NC(=O)CCc2nc3ccccc3s2)cc1	inconclusive: 20 µM [inhibitor, single point]
COC(C(=O)Nc1ccnn1C1CCN(Cc2nccs2)CC1)c1ccccc1 (centres undefined)	inconclusive: 6.31 µM [inhibitor, single point]
CC(C)Oc1ccc(C(=O)Nc2ccc(N(C)C)cc2)cc1	inactive
CC(C)(C)c1ccc(C(CC(=O)O)NC(=O)CCCc2ccccc2)cc1 (centres undefined)	inconclusive: 1.41 µM [inhibitor, full curve, poor fit]
CCCN(Cc1nc2cc(Cl)ccc2c(=O)[nH]1)C(=O)c1ccc(S(=O)(=O)N2CCCC2)cc1	inconclusive: 35.5 µM [inhibitor, single point]
N#Cc1c(C(F)(F)F)cc(-c2ccc(Cl)c(Cl)c2)nc1SCCN1CCOCC1	inconclusive: 35.5 µM [inhibitor, single point]
Cc1ccc2c(c1)c(=O)c(C(=O)c1ccncc1)cn2CC(=O)Nc1ccc(C(C)C)cc1	inconclusive: 35.5 µM [inhibitor, single point]
COc1cccc(NC(=O)Cn2nc3c4ccccc4n(Cc4cccc(F)c4)cc-3c2=O)c1	inconclusive: 20 µM [inhibitor, partial curve, poor fit]
COc1ccc(N=Nc2nc3cc(Br)c(Br)cc3n2C)c(OC)c1	inconclusive: 22.4 µM [inhibitor, single point]
O=C(Cn1ncc(Cl)c(Cl)c1=O)NCC1CCCCC1	inconclusive: 3.55 µM [inhibitor, single point]

SMILES	Potency
N#Cc1ccccc1/C=N/Nc1nc(-c2ccccc2)c2cc(Cl)ccc2n1	inconclusive: 3.16 µM [inhibitor, partial curve, poor fit]
Cc1cc(C(=O)N/N=C/c2ccc(-c3ccc([N+](=O)[O-])cc3C)o2)n[nH]1	inconclusive: 35.5 µM [inhibitor, single point]
Nc1nc(Cl)cc(N2CCC(c3cc(-c4ccc(Cl)cc4Cl)n[nH]3)CC2)n1	inactive
CC(=O)Nc1cccc(NC(=O)C2(c3cccs3)CCOCC2)c1	inactive
OCC1(Cc2ccccc2)CCN(C2CCN(c3ccc(F)c(F)c3)CC2)CC1	inactive
Cc1ccc(S(=O)(=O)c2cc3c(=O)n4ccccc4nc3n(Cc3ccco3)c2=N)cc1C	inconclusive: 35.5 µM [inhibitor, single point]
COc1ccc(CNC(=O)c2ccc3c(c2)NC(=O)C(CS(=O)(=O)Cc2ccccc2Cl)N3)cc1 (centres undefined)	inconclusive: 35.5 µM [inhibitor, single point]
CCOC(=O)c1c(NC(=O)CSc2nnnn2-c2ccccc2OCC)sc2c1CC(C)(C)NC2(C)C	inconclusive: 35.5 µM [inhibitor, single point]
O=C1CC2(CCN(C(=O)c3ccccc3Br)CC2)Oc2ccccc21	inconclusive: 15.8 µM [inhibitor, single point]
Oc1c(CN2CCN(c3ccccc3)CC2)cc(Br)c2cccnc12	inconclusive: 3.16 µM [inhibitor, single point]
CCOC(=O)c1c(NC(=O)c2ccccc2Br)sc2c1CCc1ccccc1-2	inactive
Cc1ccccc1C1C(C#N)=C2N=C(N)c3c(sc4c3CCCCC4)N2C2=C1C(=O)CC(C)(C)C2 (centres undefined)	inconclusive: 35.5 µM [inhibitor, single point]
CC1=NN(c2ccc(C)cc2)C(=O)/C1=C\C=C\c1ccccc1	inconclusive: 3.55 µM [inhibitor, single point]
CC(Cc1cccs1)NC(=S)Nc1ccccc1 (centres undefined)	inconclusive: 20 µM [inhibitor, single point]
CCOC(=O)c1c(NC(=O)c2ccc(S(=O)(=O)N(C)C)cc2)sc2c1CCN(C)C2	inconclusive: 35.5 µM [inhibitor, single point]
COC(=O)c1cc(=O)n(CCc2ccc(OC)c(OC)c2)c(=Nc2ccc(F)c(Cl)c2)s1	inconclusive: 14.1 µM [inhibitor, single point]
CC(C)OC(=O)CC(=O)CSc1nc2c(cc1C#N)CCC2	inactive
NC(=S)NNc1c(F)c(F)c(F)c(F)c1F	inactive
CCOc1cc(/C=C2/C(=N)N3C(=NC2=O)SN=C3S(C)(=O)=O)ccc1OC(=O)c1ccco1	active: 12.6 µM
CNC(=O)c1c(NC(=O)c2ccc(S(=O)(=O)N3CCCCC3C)cc2)sc2c1CCN(C)C2 (centres undefined)	inconclusive: 35.5 µM [inhibitor, single point]

Exported field by field: two of the compounds above.
CC(C)OC(=O)CC(=O)CSc1nc2c(cc1C#N)CCC2
  Potency: inactive
NC(=S)NNc1c(F)c(F)c(F)c(F)c1F
  Potency: inactive
